The values below come from PMC10962057.

Results are given in words; binding and its absence hold for the method and conditions named. Binding seen in cells or lysates may run through a third protein. Some binding calls cover weakened binding; strength is not graded here.

The experiment deals with T1, Thioredoxin-interacting protein (TXNIP) (human (endogenous in IMR90)) (UniProt Q9H3M7).
T1 sequence: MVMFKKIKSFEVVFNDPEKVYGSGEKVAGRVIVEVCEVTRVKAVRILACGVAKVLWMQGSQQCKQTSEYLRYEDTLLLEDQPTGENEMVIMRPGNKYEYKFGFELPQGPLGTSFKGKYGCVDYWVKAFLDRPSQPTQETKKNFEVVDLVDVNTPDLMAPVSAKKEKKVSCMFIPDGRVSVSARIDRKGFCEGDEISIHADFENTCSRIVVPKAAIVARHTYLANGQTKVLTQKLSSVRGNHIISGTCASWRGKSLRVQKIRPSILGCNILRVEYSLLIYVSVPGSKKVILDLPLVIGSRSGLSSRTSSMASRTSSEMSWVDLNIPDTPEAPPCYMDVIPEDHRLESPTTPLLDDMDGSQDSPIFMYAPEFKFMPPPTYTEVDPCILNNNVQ
The experiment can be described thus: co-IP; IMR90 cell lysates immunoprecipitated with TXNIP antibody (rabbit IgG as control), immunoblotting with USP13 antibody. (In general: Immunoblotting shows a protein as a band on a membrane.)

B1: ubiquitin-specific protease-13 (USP13) (enzyme, UniProt Q92995 1-863)
chain: MQRRGALFGMPGGSGGRKMAAGDIGELLVPHMPTIRVPRSGDRVYKNECAFSYDSPNSEGGLYVCMNTFLAFGREHVERHFRKTGQSVYMHLKRHVREKVRGASGGALPKRRNSKIFLDLDTDDDLNSDDYEYEDEAKLVIFPDHYEIALPNIEELPALVTIACDAVLSSKSPYRKQDPDTWENELPVSKYANNLTQLDNGVRIPPSGWKCARCDLRENLWLNLTDGSVLCGKWFFDSSGGNGHALEHYRDMGYPLAVKLGTITPDGADVYSFQEEEPVLDPHLAKHLAHFGIDMLHMHGTENGLQDNDIKLRVSEWEVIQESGTKLKPMYGPGYTGLKNLGNSCYLSSVMQAIFSIPEFQRAYVGNLPRIFDYSPLDPTQDFNTQMTKLGHGLLSGQYSKPPVKSELIEQVMKEEHKPQQNGISPRMFKAFVSKSHPEFSSNRQQDAQEFFLHLVNLVERNRIGSENPSDVFRFLVEERIQCCQTRKVRYTERVDYLMQLPVAMEAATNKDELIAYELTRREAEANRRPLPELVRAKIPFSACLQAFSEPENVDDFWSSALQAKSAGVKTSRFASFPEYLVVQIKKFTFGLDWVPKKFDVSIDMPDLLDINHLRARGLQPGEEELPDISPPIVIPDDSKDRLMNQLIDPSDIDESSVMQLAEMGFPLEACRKAVYFTGNMGAEVAFNWIIVHMEEPDFAEPLTMPGYGGAASAGASVFGASGLDNQPPEEIVAIITSMGFQRNQAIQALRATNNNLERALDWIFSHPEFEEDSDFVIEMENNANANIISEAKPEGPRVKDGSGTYELFAFISHMGTSTMSGHYICHIKKEGRWVIYNDHKVCASERPPKDLGYMYFYRRIPS
Consider B1, for which the binding result is “binds”.
